Measured values as given in PubChem BioAssay AID540276 (National Center for Advancing Translational Sciences (NCATS), 2011).
Hit rate of the full screen: of about 300,000 compounds, about 5,400 (1.8%) were called active. These results got no clear call from the source, so the numbers are uncertain. The call rests on the fitted dose curve; tested in HEK293 cells.

test: qHTS for inhibitors of binding or entry into cells for Marburg Virus; settings: Marburg virus pseudotyped entry inhibition, cell reporter
Potency means the concentration at half of the fitted maximal effect.

Row | SMILES | Potency
1 | CCc1cc(C(=O)NCC2(N3CCCCC3)CCCCC2)sc1C | inconclusive: 8.91 µM
2 | CC(C)(C)OC(=O)N1CCC(N(C(=O)c2ccccc2)c2ccc(Cl)cc2)CC1 | inconclusive: 35.5 µM
3 | N#Cc1ccc(C(=O)NCC2(N3CCCCC3)CCCCC2)cc1 | inconclusive: 1.41 µM
4 | CCCN1CCC(Nc2cc(OC)cc(OC)c2)CC1 | inconclusive: 12.6 µM
5 | Cc1cc(N(CCCl)CCCl)ccc1C=O | inconclusive: 0.251 µM
6 | COc1cc(OC)cc(C(=O)NCC2(N3CCCCC3)CCCCC2)c1 | inconclusive: 17.8 µM
7 | CN(C)C1(CNC(=O)c2ccc(C(C)(C)C)cc2)CCCCC1 | inconclusive: 11.2 µM
8 | CCN1CCC(Nc2cccc(F)c2)CC1 | inconclusive: 3.55 µM
9 | Cn1c(=O)[nH]cc(N(CCCl)CCCl)c1=O | inconclusive: 22.4 µM
10 | CN(C)c1ccc(C(=O)NCC2(N3CCCCC3)CCCCC2)cc1 | inconclusive: 14.1 µM
11 | CC(C)(C)c1ccc(C(=O)NCC2(N3CCOCC3)CCCCC2)cc1 | inconclusive: 1.12 µM
12 | COc1cccc(C(=O)N(c2cc(C)cc(C)c2)C2CCN(C(=O)OC(C)(C)C)CC2)c1 | inconclusive: 10 µM
13 | O=C(NCC1(N2CCCCC2)CCCCC1)c1cccs1 | inconclusive: 15.8 µM
14 | COc1ccc(C(=O)NCC2(N3CCCCC3)CCCCC2)cc1 | inconclusive: 10 µM
15 | CSc1ccccc1C(=O)NCC1(N2CCCCC2)CCCCC1 | inconclusive: 12.6 µM
16 | O=C(NCC1(N2CCOCC2)CCCCC1)c1cc2ccccc2o1 | inconclusive: 35.5 µM

Row | SMILES | Potency
17 | Cc1cc(C)cc(N(C(=O)c2ccccc2)C2CCN(C(=O)OC(C)(C)C)CC2)c1 | inconclusive: 14.1 µM
18 | O=C(NCC1(N2CCCCC2)CCCCC1)c1ccc(Cl)nc1 | inconclusive: 4.47 µM
19 | O=C(NCC1(N2CCCCC2)CCCCC1)c1ccc(Cl)s1 | inconclusive: 0.1 µM
20 | CCOc1ccc(C)cc1CN(CCCl)CCCl | inconclusive: 35.5 µM
21 | O=C(NCC1(N2CCOCC2)CCCCC1)c1ccc(Cl)cc1 | inconclusive: 35.5 µM
22 | COc1ccc(NC2CCN(CCc3ccccc3)CC2)c(OC)c1 | inconclusive: 29.1 µM
23 | O=C(NCC1(N2CCCCC2)CCCCC1)c1ccc(F)cc1 | inconclusive: 6.31 µM
24 | CCCCOc1ccc(C(=O)NCC2(N3CCOCC3)CCCCC2)cc1 | inconclusive: 35.5 µM
25 | COc1cc(C(=O)NCC2(N(C)C)CCCCC2)ccc1OC(F)F | inconclusive: 31.6 µM
26 | O=C(NCC1(N2CCCCC2)CCCCC1)c1ccc(OC(F)F)cc1 | inconclusive: 1.58 µM
27 | CCCOc1cccc(C(=O)NCC2(N3CCOCC3)CCCCC2)c1 | inconclusive: 22.4 µM
28 | O=[N+]([O-])c1cc([N+](=O)[O-])c(NCC2CCS(=O)(=O)C2)c([N+](=O)[O-])c1 (stereo unspecified) | inconclusive: 20 µM
29 | COc1cc(C(=O)NCC2(N3CCCCC3)CCCCC2)ccc1OC(F)F | inconclusive: 12.6 µM
30 | CN(C)c1cccc(C(=O)NCC2(N3CCCCC3)CCCCC2)c1 | inconclusive: 14.1 µM
31 | CC(C)c1ccc(NC2CCN(C(=O)OC(C)(C)C)CC2)cc1 | inconclusive: 35.5 µM
